# Source: the supplement of paper PMC8728848
# This is one part of the list.
# Assays:
# Assay in all cases: glycan array binding signal (z-score within array); higher = stronger binding
# Conditions in all cases: glycan notation: IUPAC condensed, linker removed
# [1] = target: Man(a1-2)Man(a1-3)[Man(a1-2)Man(a1-6)]Man(a1-6)[Man(a1-2)Man(a1-2)Man(a1-3)]Man
# In short: (§1)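 Glycan array data came from 3228 arrays in the Consortium for Functional Glycomics database, and only arrays with an available protein sequence were kept. Glycan names were put into IUPAC-condensed notation, and columns mapping to the same glycan were averaged. The binding signal is a within-array Z-score, averaged across arrays of one protein sequence run at different concentrations or buffers and across linkers. A negative Z-score can be read as non-binding.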
# [2] = target: Man(a1-2)Man(a1-3)[Man(a1-2)Man(a1-6)]Man(a1-6)[Man(a1-2)Man(a1-2)Man(a1-3)]Man(b1-4)GlcNAc(b1-4)GlcNAc
# In short: as §1
# [3] = target: Man(a1-2)Man(a1-3)[Man(a1-6)]Man(a1-6)[Man(a1-2)Man(a1-3)]Man(b1-4)GlcNAc(b1-4)GlcNAc
# In short: as §1
# [4] = target: Man(a1-2)Man(a1-6)[Man(a1-3)]Man(a1-6)[Man(a1-2)Man(a1-2)Man(a1-3)]Man
# In short: as §1
# [5] = target: Man(a1-2)Man(a1-6)[Man(a1-3)]Man(a1-6)[Man(a1-2)Man(a1-2)Man(a1-3)]Man(b1-4)GlcNAc(b1-4)GlcNAc
# In short: as §1
# Man(a1-3)[Man(a1-6)]Man = target: Man(a1-3)[Man(a1-6)]Man
# In short: as §1
# [6] = target: Man(a1-3)[Man(a1-6)]Man(a1-6)[Man(a1-2)Man(a1-3)]Man(b1-4)GlcNAc(b1-4)GlcNAc
# In short: as §1
# [7] = target: Man(a1-3)[Man(a1-6)]Man(a1-6)[Man(a1-3)]Man
# In short: as §1
# [8] = target: Man(a1-3)[Man(a1-6)]Man(a1-6)[Man(a1-3)]Man(b1-4)GlcNAc(b1-4)GlcNAc
# In short: as §1
# [9] = target: Man(a1-3)[Man(a1-6)]Man(b1-4)GlcNAc(b1-4)GlcNAc
# In short: as §1
# [10] = target: Man(a1-3)[Man(a1-6)]Man(b1-4)GlcNAc(b1-4)[Fuc(a1-6)]GlcNAc
# In short: as §1
# Man(a1-6)Man = target: Man(a1-6)Man
# In short: as §1
# Man(b1-4)GlcNAc = target: Man(b1-4)GlcNAc
# In short: as §1
# MurNAc(b1-4)GlcNAc = target: MurNAc(b1-4)GlcNAc
# In short: as §1
# Neu5Ac(a2-3)Gal = target: Neu5Ac(a2-3)Gal
# In short: as §1
# [11] = target: Neu5Ac(a2-3)Gal(b1-3)GalNAc
# In short: as §1
# [12] = target: Neu5Ac(a2-3)Gal(b1-3)GalNAc(b1-3)Gal(a1-4)Gal(b1-4)Glc
# In short: as §1
# [13] = target: Neu5Ac(a2-3)Gal(b1-3)GalNAc(b1-4)Gal(b1-4)Glc
# In short: as §1
# [14] = target: Neu5Ac(a2-3)Gal(b1-3)GalNAc(b1-4)[Neu5Ac(a2-3)]Gal(b1-4)Glc
# In short: as §1
# [15] = target: Neu5Ac(a2-3)Gal(b1-3)GalNAc(b1-4)[Neu5Ac(a2-8)Neu5Ac(a2-3)]Gal(b1-4)Glc
# In short: as §1
# [16] = target: Neu5Ac(a2-3)Gal(b1-3)GalNAc6S
# In short: as §1
# [17] = target: Neu5Ac(a2-3)Gal(b1-3)GlcNAc
# In short: as §1
# [18] = target: Neu5Ac(a2-3)Gal(b1-3)GlcNAc(b1-2)Man
# In short: as §1
# [19] = target: Neu5Ac(a2-3)Gal(b1-3)GlcNAc(b1-2)Man(a1-3)[GlcNAc(b1-4)][Neu5Ac(a2-3)Gal(b1-3)GlcNAc(b1-2)Man(a1-6)]Man(b1-4)GlcNAc(b1-4)GlcNAc
# In short: as §1
# [20] = target: Neu5Ac(a2-3)Gal(b1-3)GlcNAc(b1-2)Man(a1-3)[Neu5Ac(a2-3)Gal(b1-3)GlcNAc(b1-2)Man(a1-6)]Man(b1-4)GlcNAc(b1-4)GlcNAc
# In short: as §1
# [21] = target: Neu5Ac(a2-3)Gal(b1-3)GlcNAc(b1-2)[Neu5Ac(a2-3)Gal(b1-3)GlcNAc(b1-4)]Man(a1-6)[Neu5Ac(a2-3)Gal(b1-3)GlcNAc(b1-2)Man(a1-3)]Man(b1-4)GlcNAc(b1-4)GlcNAc
# In short: as §1
# [22] = target: Neu5Ac(a2-3)Gal(b1-3)GlcNAc(b1-3)Gal(b1-3)GlcNAc
# In short: as §1
# [23] = target: Neu5Ac(a2-3)Gal(b1-3)GlcNAc(b1-3)Gal(b1-4)GlcNAc
# In short: as §1
# [24] = target: Neu5Ac(a2-3)Gal(b1-3)GlcNAc(b1-3)GalNAc
# In short: as §1
# [25] = target: Neu5Ac(a2-3)Gal(b1-3)GlcNAc(b1-6)GalNAc
# In short: as §1
# [26] = target: Neu5Ac(a2-3)Gal(b1-3)GlcNAc6S
# In short: as §1
# [27] = target: Neu5Ac(a2-3)Gal(b1-3)[Fuc(a1-4)]GlcNAc
# In short: as §1
# [28] = target: Neu5Ac(a2-3)Gal(b1-3)[Fuc(a1-4)]GlcNAc(b1-3)Gal(b1-3)[Fuc(a1-4)]GlcNAc
# In short: as §1
# [29] = target: Neu5Ac(a2-3)Gal(b1-3)[Fuc(a1-4)]GlcNAc(b1-3)Gal(b1-4)[Fuc(a1-3)]GlcNAc
# In short: as §1
# [30] = target: Neu5Ac(a2-3)Gal(b1-3)[GlcNAc(b1-6)]GalNAc
# In short: as §1
# [31] = target: Neu5Ac(a2-3)Gal(b1-3)[Neu5Ac(a2-6)]GalNAc
# In short: as §1
# [32] = target: Neu5Ac(a2-3)Gal(b1-3)[Neu5Ac(a2-6)]GlcNAc(b1-3)[Fuc(a1-3)[Gal(b1-4)]GlcNAc(b1-6)]Gal(b1-4)Glc
# In short: as §1
binder,measurement,setting,value
Mermaid1 (Stilbonema majum) (protein) MGSSHHHHHHSSGLVPRGSHMAASGWLRSPQGTVVKLYRRSLSWSKADEFCKDVDGRLVVDRTADMHLFLIKNVLKEKKSRVWVGLRRTAPHSRTWIWSDGTRQNEDDLDANLWLRDEPNDAAGEEECALFMYSPWEKAWGLNDYLCRGGCRSYQFICEKWIR,glycan array binding signal (z-score),[1],-0.745
same,glycan array binding signal (z-score),[2],0.06
same,glycan array binding signal (z-score),[3],-0.285
same,glycan array binding signal (z-score),[4],-0.378
same,glycan array binding signal (z-score),[5],0.373
same,glycan array binding signal (z-score),Man(a1-3)[Man(a1-6)]Man,-0.454
same,glycan array binding signal (z-score),[6],-0.449
same,glycan array binding signal (z-score),[7],1.02
same,glycan array binding signal (z-score),[8],0.389
same,glycan array binding signal (z-score),[9],-0.449
same,glycan array binding signal (z-score),[10],-0.385
same,glycan array binding signal (z-score),Man(a1-6)Man,0.014
same,glycan array binding signal (z-score),Man(b1-4)GlcNAc,8.49
same,glycan array binding signal (z-score),MurNAc(b1-4)GlcNAc,1.1
same,glycan array binding signal (z-score),Neu5Ac(a2-3)Gal,-0.41
same,glycan array binding signal (z-score),[11],-0.371
same,glycan array binding signal (z-score),[12],-0.006
same,glycan array binding signal (z-score),[13],-0.228
same,glycan array binding signal (z-score),[14],0.143
same,glycan array binding signal (z-score),[15],-0.558
same,glycan array binding signal (z-score),[16],0.152
same,glycan array binding signal (z-score),[17],-0.723
same,glycan array binding signal (z-score),[18],-0.781
same,glycan array binding signal (z-score),[19],-0.056
same,glycan array binding signal (z-score),[20],2.31
same,glycan array binding signal (z-score),[21],-0.365
same,glycan array binding signal (z-score),[22],-0.295
same,glycan array binding signal (z-score),[23],-0.522
same,glycan array binding signal (z-score),[24],-0.649
same,glycan array binding signal (z-score),[25],-0.543
same,glycan array binding signal (z-score),[26],0.494
same,glycan array binding signal (z-score),[27],-0.82
same,glycan array binding signal (z-score),[28],0.72
same,glycan array binding signal (z-score),[29],2.98
same,glycan array binding signal (z-score),[30],-0.799
same,glycan array binding signal (z-score),[31],-0.386
same,glycan array binding signal (z-score),[32],-0.57

# Quoted at random: 3 entries already listed
binder,measurement,setting,value
Mermaid1 (Stilbonema majum) (protein) MGSSHHHHHHSSGLVPRGSHMAASGWLRSPQGTVVKLYRRSLSWSKADEFCKDVDGRLVVDRTADMHLFLIKNVLKEKKSRVWVGLRRTAPHSRTWIWSDGTRQNEDDLDANLWLRDEPNDAAGEEECALFMYSPWEKAWGLNDYLCRGGCRSYQFICEKWIR,glycan array binding signal (z-score),[23],-0.522
same,glycan array binding signal (z-score),[28],0.72
same,glycan array binding signal (z-score),[21],-0.365
